This is an account of results in article PMC3946611, “hCLE/C14orf166 Associates with DDX1-HSPC117-FAM98B in a Novel Transcription-Dependent Shuttling RNA-Transporting Complex” (PLoS ONE, 2014).

Amino acid sequences for entries named in this document (tags omitted). Residues count along the entry.
UniProt Q13443, residues 29-819: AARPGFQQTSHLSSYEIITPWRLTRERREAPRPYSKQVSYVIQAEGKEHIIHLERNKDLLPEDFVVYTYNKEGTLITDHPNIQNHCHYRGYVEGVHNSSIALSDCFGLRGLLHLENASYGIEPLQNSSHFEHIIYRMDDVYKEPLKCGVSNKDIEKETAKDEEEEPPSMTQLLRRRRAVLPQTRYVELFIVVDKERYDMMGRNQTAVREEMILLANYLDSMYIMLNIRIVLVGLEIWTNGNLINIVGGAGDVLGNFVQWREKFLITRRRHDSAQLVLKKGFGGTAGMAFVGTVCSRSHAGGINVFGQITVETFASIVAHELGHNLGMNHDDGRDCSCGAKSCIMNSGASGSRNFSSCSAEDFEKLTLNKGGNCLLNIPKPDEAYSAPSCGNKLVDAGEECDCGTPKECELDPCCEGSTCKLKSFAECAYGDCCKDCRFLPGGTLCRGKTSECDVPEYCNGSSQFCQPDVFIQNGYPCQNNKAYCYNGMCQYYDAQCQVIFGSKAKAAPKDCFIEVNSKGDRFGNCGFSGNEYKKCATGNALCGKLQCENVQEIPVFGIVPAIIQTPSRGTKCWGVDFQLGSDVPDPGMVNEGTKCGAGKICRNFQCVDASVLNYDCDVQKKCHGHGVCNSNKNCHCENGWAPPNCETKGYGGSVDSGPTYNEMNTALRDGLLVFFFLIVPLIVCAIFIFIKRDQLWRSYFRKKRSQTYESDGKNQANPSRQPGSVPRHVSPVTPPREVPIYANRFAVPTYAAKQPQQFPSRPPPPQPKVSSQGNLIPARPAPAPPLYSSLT
UniProt O75190: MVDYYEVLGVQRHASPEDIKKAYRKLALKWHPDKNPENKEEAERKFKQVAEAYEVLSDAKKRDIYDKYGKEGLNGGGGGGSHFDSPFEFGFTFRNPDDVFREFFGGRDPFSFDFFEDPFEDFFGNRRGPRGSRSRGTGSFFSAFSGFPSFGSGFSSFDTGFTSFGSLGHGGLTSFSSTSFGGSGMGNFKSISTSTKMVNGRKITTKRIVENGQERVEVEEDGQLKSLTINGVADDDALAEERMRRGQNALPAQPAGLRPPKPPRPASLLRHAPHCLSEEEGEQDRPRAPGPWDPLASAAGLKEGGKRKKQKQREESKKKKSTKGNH
UniProt P55081: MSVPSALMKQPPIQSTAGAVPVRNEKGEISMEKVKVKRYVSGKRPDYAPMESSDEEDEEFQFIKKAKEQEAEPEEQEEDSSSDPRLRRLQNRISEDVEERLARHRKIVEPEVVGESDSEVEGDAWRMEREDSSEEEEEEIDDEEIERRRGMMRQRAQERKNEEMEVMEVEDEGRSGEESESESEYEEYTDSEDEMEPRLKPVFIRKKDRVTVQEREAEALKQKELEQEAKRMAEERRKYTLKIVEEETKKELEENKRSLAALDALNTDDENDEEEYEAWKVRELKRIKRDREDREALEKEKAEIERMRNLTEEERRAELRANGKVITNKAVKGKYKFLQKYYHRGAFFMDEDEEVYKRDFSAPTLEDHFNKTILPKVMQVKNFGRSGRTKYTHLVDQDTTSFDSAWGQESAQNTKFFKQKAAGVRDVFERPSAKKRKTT
UniProt P20648: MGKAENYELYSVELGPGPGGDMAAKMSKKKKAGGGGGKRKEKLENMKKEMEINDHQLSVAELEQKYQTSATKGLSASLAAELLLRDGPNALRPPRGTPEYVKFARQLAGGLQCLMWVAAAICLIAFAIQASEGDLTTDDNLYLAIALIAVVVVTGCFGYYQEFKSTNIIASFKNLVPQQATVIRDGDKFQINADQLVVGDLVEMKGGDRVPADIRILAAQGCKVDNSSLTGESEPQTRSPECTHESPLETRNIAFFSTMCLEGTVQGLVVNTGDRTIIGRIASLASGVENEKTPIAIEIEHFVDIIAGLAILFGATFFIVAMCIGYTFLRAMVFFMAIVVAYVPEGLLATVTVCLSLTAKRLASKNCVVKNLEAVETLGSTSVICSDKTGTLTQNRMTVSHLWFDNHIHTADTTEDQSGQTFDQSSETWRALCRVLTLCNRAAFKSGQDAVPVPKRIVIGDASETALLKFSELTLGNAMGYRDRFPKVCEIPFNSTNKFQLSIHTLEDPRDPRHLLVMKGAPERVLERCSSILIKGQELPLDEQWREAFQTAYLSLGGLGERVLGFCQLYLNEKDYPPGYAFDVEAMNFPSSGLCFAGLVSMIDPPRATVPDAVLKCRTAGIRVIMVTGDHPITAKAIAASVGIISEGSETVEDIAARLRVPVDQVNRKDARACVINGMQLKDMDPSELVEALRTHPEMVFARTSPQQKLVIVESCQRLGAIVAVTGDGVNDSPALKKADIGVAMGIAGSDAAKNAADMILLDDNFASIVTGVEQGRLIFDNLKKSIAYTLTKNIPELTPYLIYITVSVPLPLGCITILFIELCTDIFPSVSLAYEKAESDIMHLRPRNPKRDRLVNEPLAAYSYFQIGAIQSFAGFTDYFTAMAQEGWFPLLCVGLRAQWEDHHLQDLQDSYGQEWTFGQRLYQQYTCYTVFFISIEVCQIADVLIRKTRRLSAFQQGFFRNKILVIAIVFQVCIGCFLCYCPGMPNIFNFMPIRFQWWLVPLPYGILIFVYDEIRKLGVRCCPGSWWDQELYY
UniProt Q17RN3: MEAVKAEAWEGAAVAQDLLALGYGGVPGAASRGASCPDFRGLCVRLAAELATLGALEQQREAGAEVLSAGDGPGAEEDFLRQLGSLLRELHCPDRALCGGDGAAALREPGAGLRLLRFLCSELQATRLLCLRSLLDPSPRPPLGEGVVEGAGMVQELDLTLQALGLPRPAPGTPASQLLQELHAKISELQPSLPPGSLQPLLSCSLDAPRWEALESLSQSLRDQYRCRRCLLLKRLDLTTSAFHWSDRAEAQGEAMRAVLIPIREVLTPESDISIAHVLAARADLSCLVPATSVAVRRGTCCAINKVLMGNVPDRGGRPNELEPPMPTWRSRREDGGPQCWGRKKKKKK
UniProt Q6NVV1: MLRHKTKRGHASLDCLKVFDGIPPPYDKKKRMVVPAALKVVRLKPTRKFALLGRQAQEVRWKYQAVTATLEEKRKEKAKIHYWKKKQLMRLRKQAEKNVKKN
UniProt Q14692: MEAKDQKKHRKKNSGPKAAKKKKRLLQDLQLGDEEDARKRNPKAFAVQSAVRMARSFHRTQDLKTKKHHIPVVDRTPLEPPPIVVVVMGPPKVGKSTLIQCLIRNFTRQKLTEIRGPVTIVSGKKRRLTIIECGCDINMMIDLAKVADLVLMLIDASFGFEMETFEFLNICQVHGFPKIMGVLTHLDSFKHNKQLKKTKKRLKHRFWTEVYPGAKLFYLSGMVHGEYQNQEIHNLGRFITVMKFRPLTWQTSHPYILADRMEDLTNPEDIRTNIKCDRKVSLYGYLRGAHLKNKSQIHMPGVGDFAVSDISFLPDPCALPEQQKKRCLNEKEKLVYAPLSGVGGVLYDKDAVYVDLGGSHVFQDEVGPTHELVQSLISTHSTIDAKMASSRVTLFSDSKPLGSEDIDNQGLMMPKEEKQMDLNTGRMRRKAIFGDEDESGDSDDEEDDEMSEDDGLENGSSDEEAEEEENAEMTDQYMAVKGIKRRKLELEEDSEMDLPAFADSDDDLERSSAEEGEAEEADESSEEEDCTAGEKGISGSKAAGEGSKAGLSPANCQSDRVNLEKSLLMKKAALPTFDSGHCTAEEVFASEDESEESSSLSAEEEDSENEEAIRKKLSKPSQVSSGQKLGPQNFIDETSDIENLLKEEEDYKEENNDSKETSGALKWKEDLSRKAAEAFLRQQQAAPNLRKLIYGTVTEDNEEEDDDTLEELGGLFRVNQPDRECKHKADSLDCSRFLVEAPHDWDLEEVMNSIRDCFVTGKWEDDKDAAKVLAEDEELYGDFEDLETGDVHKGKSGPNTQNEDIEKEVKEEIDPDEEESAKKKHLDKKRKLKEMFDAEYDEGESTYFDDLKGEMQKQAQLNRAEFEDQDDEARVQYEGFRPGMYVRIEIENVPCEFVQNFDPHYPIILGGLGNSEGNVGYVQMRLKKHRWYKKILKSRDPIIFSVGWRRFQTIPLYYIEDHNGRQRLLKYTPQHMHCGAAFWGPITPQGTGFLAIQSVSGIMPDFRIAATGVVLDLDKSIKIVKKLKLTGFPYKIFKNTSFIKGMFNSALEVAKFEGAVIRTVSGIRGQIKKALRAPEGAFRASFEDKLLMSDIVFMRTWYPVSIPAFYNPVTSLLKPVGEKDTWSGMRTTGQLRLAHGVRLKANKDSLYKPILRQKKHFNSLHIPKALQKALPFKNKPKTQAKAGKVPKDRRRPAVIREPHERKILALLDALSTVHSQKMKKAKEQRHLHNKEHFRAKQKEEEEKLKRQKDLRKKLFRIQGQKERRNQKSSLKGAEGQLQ
UniProt Q9UDY2: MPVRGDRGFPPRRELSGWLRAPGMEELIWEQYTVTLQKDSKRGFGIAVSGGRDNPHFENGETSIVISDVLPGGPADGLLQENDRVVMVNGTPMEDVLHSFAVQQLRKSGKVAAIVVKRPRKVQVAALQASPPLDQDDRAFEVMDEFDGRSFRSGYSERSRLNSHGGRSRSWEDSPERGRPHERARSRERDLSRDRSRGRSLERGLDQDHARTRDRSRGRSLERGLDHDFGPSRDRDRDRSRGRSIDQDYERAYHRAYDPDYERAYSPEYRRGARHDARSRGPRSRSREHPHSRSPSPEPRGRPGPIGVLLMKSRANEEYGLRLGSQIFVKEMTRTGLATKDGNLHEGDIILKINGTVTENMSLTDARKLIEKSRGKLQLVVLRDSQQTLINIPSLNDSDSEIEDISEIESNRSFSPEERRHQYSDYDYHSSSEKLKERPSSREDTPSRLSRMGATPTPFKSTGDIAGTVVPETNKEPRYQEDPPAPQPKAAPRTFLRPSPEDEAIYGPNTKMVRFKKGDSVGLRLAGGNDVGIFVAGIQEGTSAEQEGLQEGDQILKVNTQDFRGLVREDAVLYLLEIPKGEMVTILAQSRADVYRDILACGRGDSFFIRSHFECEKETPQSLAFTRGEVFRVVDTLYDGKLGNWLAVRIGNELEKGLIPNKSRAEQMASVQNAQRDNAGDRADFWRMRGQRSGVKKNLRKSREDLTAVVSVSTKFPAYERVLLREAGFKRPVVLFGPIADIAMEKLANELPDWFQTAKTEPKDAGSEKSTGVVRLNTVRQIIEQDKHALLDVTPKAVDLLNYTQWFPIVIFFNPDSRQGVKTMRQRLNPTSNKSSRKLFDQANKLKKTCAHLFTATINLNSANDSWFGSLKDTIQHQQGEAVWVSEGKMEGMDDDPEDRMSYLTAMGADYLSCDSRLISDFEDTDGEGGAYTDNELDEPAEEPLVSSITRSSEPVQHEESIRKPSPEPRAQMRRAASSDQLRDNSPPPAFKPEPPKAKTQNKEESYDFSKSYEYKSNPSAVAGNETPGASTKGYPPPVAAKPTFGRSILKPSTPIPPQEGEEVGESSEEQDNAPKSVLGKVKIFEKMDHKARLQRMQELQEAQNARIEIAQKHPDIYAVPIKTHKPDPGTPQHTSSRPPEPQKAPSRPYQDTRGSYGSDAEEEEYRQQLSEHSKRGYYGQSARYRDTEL
UniProt Q8WXI9: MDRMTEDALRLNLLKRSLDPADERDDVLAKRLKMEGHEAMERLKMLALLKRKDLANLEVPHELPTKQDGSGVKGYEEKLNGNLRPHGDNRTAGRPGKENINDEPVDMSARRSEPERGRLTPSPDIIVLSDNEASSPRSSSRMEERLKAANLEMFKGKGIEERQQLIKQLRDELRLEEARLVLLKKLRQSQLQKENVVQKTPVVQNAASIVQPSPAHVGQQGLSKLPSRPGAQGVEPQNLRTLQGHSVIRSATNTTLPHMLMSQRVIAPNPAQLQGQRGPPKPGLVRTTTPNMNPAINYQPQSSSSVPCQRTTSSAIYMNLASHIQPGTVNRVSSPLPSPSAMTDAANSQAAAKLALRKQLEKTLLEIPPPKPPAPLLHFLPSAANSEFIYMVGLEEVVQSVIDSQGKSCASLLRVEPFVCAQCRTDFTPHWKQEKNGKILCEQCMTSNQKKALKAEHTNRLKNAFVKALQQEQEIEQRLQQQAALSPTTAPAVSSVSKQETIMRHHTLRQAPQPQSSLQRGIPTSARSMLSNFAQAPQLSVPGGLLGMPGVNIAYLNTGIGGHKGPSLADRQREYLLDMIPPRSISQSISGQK

No constants are given. Whether binding was seen depends on the method and setting. Binding seen in cells or lysates may run through a third protein. Here binding means that the protein was enriched with, or labelled near, the bait; the list need not be complete. Sequences can lack the tags named with a protein.

For test [1], the target named is T1, hCLE-TAP tagged protein, purified as hCLE-CBD (human) (UniProt Q9Y224).
T1 sequence: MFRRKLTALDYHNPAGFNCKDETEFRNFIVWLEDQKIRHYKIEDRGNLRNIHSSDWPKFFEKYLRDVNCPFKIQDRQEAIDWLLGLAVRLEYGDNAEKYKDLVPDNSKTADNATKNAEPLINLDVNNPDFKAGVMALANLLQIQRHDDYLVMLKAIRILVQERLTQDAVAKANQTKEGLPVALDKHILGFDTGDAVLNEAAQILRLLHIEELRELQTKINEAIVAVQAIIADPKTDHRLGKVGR
Kind of test: affinity purification with mass spectrometry; TAP purification of hCLE-TAP from cytosolic extracts of transfected HEK293T cells (150 mM NaCl); LC-MS/MS; TAP alone as control.

In test [2] the target is T1, hCLE-TAP tagged protein, purified as hCLE-CBD (human). The test can be described thus: affinity purification with mass spectrometry; TAP purification of hCLE-TAP from nuclear extracts of transfected HEK293T cells (150 mM NaCl, 10 mM Tris-HCl pH 8.0, 0.1% NP-40); LC-MS/MS; TAP alone as control.

For the molecule “Disintegrin and metalloproteinase domain-containing prot. 9 (from UniProt Q13443 29-819)”, in test [1], the binding entry was “binds”.

“DnaJ homolog subfamily B member 6 (from UniProt O75190 1-326)”: the binding result in test [1] is listed as “binds”.

Take “Microfibrillar-associated protein 1 (from UniProt P55081 1-439)”: in test [1], the binding entry is “binds”.

Consider “Potassium-transporting ATPase alpha chain 1 (from UniProt P20648 1-1035)”, for which the binding result in test [1] is reported as “binds”.

“Protein FAM98C (from UniProt Q17RN3 1-349)”: the binding entry in test [1] is reported as “binds”.

As to “Putative 60S ribosomal protein L13a-like MGC87657 (from UniProt Q6NVV1 1-102)”, in test [1], the binding entry was “binds”.

Take “Ribosome biogenesis protein BMS1 homolog (from UniProt Q14692 1-1282)”: in test [1], the binding result is given as “binds”.

In the case of “Tight junction protein ZO-2 (from UniProt Q9UDY2 1-1190)”, the binding entry in test [1] is “binds”.

For the molecule “Transcriptional repressor p66-beta (from UniProt Q8WXI9 1-593)”, in test [1], the binding result was “binds”.

B1: Pre-mRNA 3∼-end-processing factor FIP1 (protein, UniProt Q6UN15 1-594)
chain: MSAGEVERLVSELSGGTGGDEEEEWLYGGPWDVHVHSDLAKDLDENEVERPEEENASANPPSGIEDETAENGVPKPKVTETEDDSDSDSDDDEDDVHVTIGDIKTGAPQYGSYGTAPVNLNIKTGGRVYGTTGTKVKGVDLDAPGSINGVPLLEVDLDSFEDKPWRKPGADLSDYFNYGFNEDTWKAYCEKQKRIRMGLEVIPVTSTTNKITAEDCTMEVTPGAEIQDGRFNLFKVQQGRTGNSEKETALPSTKAEFTSPPSLFKTGLPPSRNSTSSQSQTSTASRKANSSVGKWQDRYGRAESPDLRRLPGAIDVIGQTITISRVEGRRRANENSNIQVLSERSATEVDNNFSKPPPFFPPGAPPTHLPPPPFLPPPPTVSTAPPLIPPPGFPPPPGAPPPSLIPTIESGHSSGYDSRSARAFPYGNVAFPHLPGSAPSWPSLVDTSKQWDYYARREKDRDRERDRDRERDRDRDRERERTRERERERDHSPTPSVFNSDEERYRYREYAERGYERHRASREKEERHRERRHREKEETRHKSSRSNSRRRHESEEGDSHRRHKHKKSKRSKEGKEAGSEPAPEQESTEATPAE
As for B1, the binding entry in test [2] is “binds”.

B2: ATP-binding cassette sub-family D member 3 (protein, UniProt P28288 1-659)
chain: MAAFSKYLTARNSSLAGAAFLLLCLLHKRRRALGLHGKKSGKPPLQNNEKEGKKERAVVDKVFFSRLIQILKIMVPRTFCKETGYLVLIAVMLVSRTYCDVWMIQNGTLIESGIIGRSRKDFKRYLLNFIAAMPLISLVNNFLKYGLNELKLCFRVRLTKYLYEEYLQAFTYYKMGNLDNRIANPDQLLTQDVEKFCNSVVDLYSNLSKPFLDIVLYIFKLTSAIGAQGPASMMAYLVVSGLFLTRLRRPIGKMTITEQKYEGEYRYVNSRLITNSEEIAFYNGNKREKQTVHSVFRKLVEHLHNFILFRFSMGFIDSIIAKYLATVVGYLVVSRPFLDLSHPRHLKSTHSELLEDYYQSGRMLLRMSQALGRIVLAGREMTRLAGFTARITELMQVLKDLNHGKYERTMVSQQEKGIEGVQVIPLIPGAGEIIIADNIIKFDHVPLATPNGDVLIRDLNFEVRSGANVLICGPNGCGKSSLFRVLGELWPLFGGRLTKPERGKLFYVPQRPYMTLGTLRDQVIYPDGREDQKRKGISDLVLKEYLDNVQLGHILEREGGWDSVQDWMDVLSGGEKQRMAMARLFYHKPQFAILDECTSAVSVDVEGYIYSHCRKVGITLFTVSHRKSLWKHHEYYLHMDGRGNYEFKQITEDTVEFGS
As to B2, in test [1], the binding result was “binds”.

B3: Coiled-coil alpha-helical rod protein 1 (protein, UniProt Q8TD31 1-782)
chain: MFPPSGSTGLIPPSHFQARPLSTLPRMAPTWLSDIPLVQPPGHQDVSERRLDTQRPQVTMWERDVSSDRQEPGRRGRSWGLEGSQALSQQAEVIVRQLQELRRLEEEVRLLRETSLQQKMRLEAQAMELEALARAEKAGRAEAEGLRAALAGAEVVRKNLEEGSQRELEEVQRLHQEQLSSLTQAHEEALSSLTSKAEGLEKSLSSLETRRAGEAKELAEAQREAELLRKQLSKTQEDLEAQVTLVENLRKYVGEQVPSEVHSQTWELERQKLLETMQHLQEDRDSLHATAELLQVRVQSLTHILALQEEELTRKVQPSDSLEPEFTRKCQSLLNRWREKVFALMVQLKAQELEHSDSVKQLKGQVASLQEKVTSQSQEQAILQRSLQDKAAEVEVERMGAKGLQLELSRAQEARRRWQQQTASAEEQLRLVVNAVSSSQIWLETTMAKVEGAAAQLPSLNNRLSYAVRKVHTIRGLIARKLALAQLRQESCPLPPPVTDVSLELQQLREERNRLDAELQLSARLIQQEVGRAREQGEAERQQLSKVAQQLEQELQQTQESLASLGLQLEVARQGQQESTEEAASLRQELTQQQELYGQALQEKVAEVETRLREQLSDTERRLNEARREHAKAVVSLRQIQRRAAQEKERSQELRRLQEEARKEEGQRLARRLQELERDKNLMLATLQQEGLLSRYKQQRLLTVLPSLLDKKKSVVSSPRPPECSASAPVAAAVPTRESIKGSLSVLLDDLQDLSEAISKEEAVCQGDNLDRCSSSNPQMSS
With B3, the binding entry in test [2] is “binds”.

B4: Protein salvador homolog 1 (protein, UniProt Q9H4B6 1-383)
chain: MLSRKKTKNEVSKPAEVQGKYVKKETSPLLRNLMPSFIRHGPTIPRRTDICLPDSSPNAFSTSGDVVSRNQSFLRTPIQRTPHEIMRRESNRLSAPSYLARSLADVPREYGSSQSFVTEVSFAVENGDSGSRYYYSDNFFDGQRKRPLGDRAHEDYRYYEYNHDLFQRMPQNQGRHASGIGRVAATSLGNLTNHGSEDLPLPPGWSVDWTMRGRKYYIDHNTNTTHWSHPLEREGLPPGWERVESSEFGTYYVDHTNKKAQYRHPCAPSVPRYDQPPPVTYQPQQTERNQSLLVPANPYHTAEIPDWLQVYARAPVKYDHILKWELFQLADLDTYQGMLKLLFMKELEQIVKMYEAYRQALLTELENRKQRQQWYAQQHGKNF
For the molecule B4, the binding result in test [2] was “binds”.

B5: U4/U6 small nuclear ribonucleoprotein Prp4 (protein, UniProt O43172 1-522)
chain: MASSRASSTQATKTKAPDDLVAPVVKKPHIYYGSLEEKERERLAKGESGILGKDGLKAGIEAGNINITSGEVFEIEEHISERQAEVLAEFERRKRARQINVSTDDSEVKACLRALGEPITLFGEGPAERRERLRNILSVVGTDALKKTKKDDEKSKKSKEEYQQTWYHEGPNSLKVARLWIANYSLPRAMKRLEEARLHKEIPETTRTSQMQELHKSLRSLNNFCSQIGDDRPISYCHFSPNSKMLATACWSGLCKLWSVPDCNLLHTLRGHNTNVGAIVFHPKSTVSLDPKDVNLASCAADGSVKLWSLDSDEPVADIEGHTVRVARVMWHPSGRFLGTTCYDRSWRLWDLEAQEEILHQEGHSMGVYDIAFHQDGSLAGTGGLDAFGRVWDLRTGRCIMFLEGHLKEIYGINFSPNGYHIATGSGDNTCKVWDLRQRRCVYTIPAHQNLVTGVKFEPIHGNFLLTGAYDNTAKIWTHPGWSPLKTLAGHEGKVMGLDISSDGQLIATCSYDRTFKLWMAE
As to B5, the binding result in test [2] was “binds”.

B6: Small proline-rich protein 3 (protein, UniProt Q9UBC9 1-169)
chain: MSSYQQKQTFTPPPQLQQQQVKQPSQPPPQEIFVPTTKEPCHSKVPQPGNTKIPEPGCTKVPEPGCTKVPEPGCTKVPEPGCTKVPEPGCTKVPEPGCTKVPEPGYTKVPEPGSIKVPDQGFIKFPEPGAIKVPEQGYTKVPVPGYTKLPEPCPSTVTPGPAQQKTKQK
With B6, the binding entry in test [2] is “binds”.

B7: Nucleus accumbens-associated protein 1 (protein, UniProt Q96RE7 1-527)
chain: MAQTLQMEIPNFGNSILECLNEQRLQGLYCDVSVVVKGHAFKAHRAVLAASSSYFRDLFNNSRSAVVELPAAVQPQSFQQILSFCYTGRLSMNVGDQFLLMYTAGFLQIQEIMEKGTEFFLKVSSPSCDSQGLHAEEAPSSEPQSPVAQTSGWPACSTPLPLVSRVKTEQQESDSVQCMPVAKRLWDSGQKEAGGGGNGSRKMAKFSTPDLAANRPHQPPPPQQAPVVAAAQPAVAAGAGQPAGGVAAAGGVVSGPSTSERTSPGTSSAYTSDSPGSYHNEEDEEEDGGEEGMDEQYRQICNMYTMYSMMNVGQTAEKVEALPEQVAPESRNRIRVRQDLASLPAELINQIGNRCHPKLYDEGDPSEKLELVTGTNVYITRAQLMNCHVSAGTRHKVLLRRLLASFFDRNTLANSCGTGIRSSTNDPRRKPLDSRVLHAVKYYCQNFAPNFKESEMNAIAADMCTNARRVVRKSWMPKVKVLKAEDDAYTTFISETGKIEPDMMGVEHGFETASHEGEAGPSAEALQ
For the molecule B7, the binding entry in test [2] was “binds”.

B8: B-cell receptor-associated protein 31 (protein, UniProt P51572 1-246)
chain: MSLQWTAVATFLYAEVFVVLLLCIPFISPKRWQKIFKSRLVELLVSYGNTFFVVLIVILVLLVIDAVREIRKYDDVTEKVNLQNNPGAMEHFHMKLFRAQRNLYIAGFSLLLSFLLRRLVTLISQQATLLASNEAFKKQAESASEAAKKYMEENDQLKKGAAVDGGKLDVGNAEVKLEEENRSLKADLQKLKDELASTKQKLEKAENQVLAMRKQSEGLTKEYDRLLEEHAKLQAAVDGPMDKKEE
In the case of B8, in test [1], the binding result is on record as “binds”.

B9: Lysozyme C (protein, UniProt P61626 19-148)
chain: KVFERCELARTLKRLGMDGYRGISLANWMCLAKWESGYNTRATNYNAGDRSTDYGIFQINSRYWCNDGKTPGAVNACHLSCSALLQDNIADAVACAKRVVRDPQGIRAWVAWRNRCQNRDVRQYVQGCGV
For B9, the binding result in test [2] is “binds”.

B10: Single-stranded DNA-binding protein 3 (protein, UniProt Q9BWW4 1-388)
chain: MFAKGKGSAVPSDGQAREKLALYVYEYLLHVGAQKSAQTFLSEIRWEKNITLGEPPGFLHSWWCVFWDLYCAAPERRDTCEHSSEAKAFHDYSAAAAPSPVLGNIPPNDGMPGGPIPPGFFQGPPGSQPSPHAQPPPHNPSSMMGPHSQPFMSPRYAGGPRPPIRMGNQPPGGVPGTQPLLPNSMDPTRQQGHPNMGGSMQRMNPPRGMGPMGPGPQNYGSGMRPPPNSLGPAMPGINMGPGAGRPWPNPNSANSIPYSSSSPGTYVGPPGGGGPPGTPIMPSPADSTNSSDNIYTMINPVPPGGSRSNFPMGPGSDGPMGGMGGMEPHHMNGSLGSGDIDGLPKNSPNNISGISNPPGTPRDDGELGGNFLHSFQNDNYSPSMTMSV
In the case of B10, the binding entry in test [2] is listed as “binds”.
